Measurements reported in PMC10763615 (RSC Chemical Biology, 2023).
Where a sequence shows no end group, the ends are not given. Strings that start with PEPTIDE1 are HELM notation: dots part the residues, brackets hold end groups and non-standard residues.

Assay: general procedure: Fmoc solid-phase peptide synthesis; Fmoc-PAL AM resin (Novabiochem) pre-loaded with GSGSDYKDDDDK-NH2; DIC / Oxyma / collidine
Settings: whole synthesis, analytical HPLC/UPLC
[1] = one disulfide bridge, sequence written open

Substance	crude HPLC purity [%]	crude HPLC purity [1] [%]	final HPLC purity [%]
PEPTIDE1{[ac].M.C.K.Y.S.K.D.L.W.L.Y.R.L.W.C.G.S.G.S.D.Y.K.D.D.D.D.K.[am]}$PEPTIDE1,PEPTIDE1,3:R3-16:R3$$$V2.0	34.45	–	–
MCHCFPIVCWFEC	32.77	–	–
PEPTIDE1{[ac].M.C.Y.T.R.H.P.Y.E.A.L.W.H.Q.C.G.S.G.S.D.Y.K.D.D.D.D.K.[am]}$PEPTIDE1,PEPTIDE1,3:R3-16:R3$$$V2.0	64.78	–	–
PEPTIDE1{[ac].M.C.A.P.K.W.L.I.K.V.L.S.C.G.S.G.S.D.Y.K.D.D.D.D.K.[am]}$PEPTIDE1,PEPTIDE1,3:R3-14:R3$$$V2.0	60.67	–	–
PEPTIDE1{[ac].M.C.P.Y.A.I.Y.W.Y.K.W.R.K.T.C.G.S.G.S.E.E.G.S.G.S.D.Y.K.D.D.D.D.K.[am]}$PEPTIDE1,PEPTIDE1,3:R3-16:R3$$$V2.0	49.15	–	–
PEPTIDE1{[ac].M.C.K.E.Y.E.I.L.W.Y.K.L.Q.Y.C.G.S.G.S.D.Y.K.D.D.D.D.K.[am]}$PEPTIDE1,PEPTIDE1,3:R3-16:R3$$$V2.0	48.94	–	–
PEPTIDE1{[ac].M.C.R.D.F.W.H.L.W.F.R.V.C.G.S.G.S.D.Y.K.D.D.D.D.K.[am]}$PEPTIDE1,PEPTIDE1,3:R3-14:R3$$$V2.0	42.96	–	–
PEPTIDE1{M.C.T.K.F.P.W.P.L.P.I.F.W.A.C.G.S.G.S.D.Y.K.D.D.D.D.K.[am]}$PEPTIDE1,PEPTIDE1,2:R3-15:R3$$$V2.0	24.21	–	–
PEPTIDE1{[ac].M.C.G.H.F.S.I.T.W.F.K.W.C.G.S.G.S.D.Y.K.D.D.D.D.K.[am]}$PEPTIDE1,PEPTIDE1,3:R3-14:R3$$$V2.0	63.78	–	–
MCYFDPHFIFIPC	–	87.07	–
PEPTIDE1{[ac].M.C.H.L.L.Y.Y.K.L.F.H.S.C.G.S.G.S.D.Y.K.D.D.D.D.K.[am]}$PEPTIDE1,PEPTIDE1,3:R3-14:R3$$$V2.0	54.80	–	–
PEPTIDE1{[ac].M.C.P.I.H.F.F.K.I.V.Y.R.H.C.G.S.G.S.E.E.G.S.G.S.D.Y.K.D.D.D.D.K.[am]}$PEPTIDE1,PEPTIDE1,3:R3-15:R3$$$V2.0	47.51	–	–
PEPTIDE1{[ac].M.C.D.K.F.V.K.W.Y.I.V.F.R.H.C.G.S.G.S.E.E.G.S.G.S.D.Y.K.D.D.D.D.K.[am]}$PEPTIDE1,PEPTIDE1,3:R3-16:R3$$$V2.0	46.62	–	–
PEPTIDE1{[ac].M.C.S.I.L.W.Y.K.I.T.K.P.L.C.G.S.G.S.D.Y.K.D.D.D.D.K.[am]}$PEPTIDE1,PEPTIDE1,3:R3-15:R3$$$V2.0	41.72	–	–
MCSYGSWYGYSYLAC	–	83.22	–
PEPTIDE1{[ac].M.C.H.L.A.Y.Y.L.A.F.R.S.C.G.S.G.S.D.Y.K.D.D.D.D.K.[am]}$PEPTIDE1,PEPTIDE1,3:R3-14:R3$$$V2.0	54.88	–	88.8
PEPTIDE1{[ac].M.C.F.L.D.H.K.T.K.V.F.V.Y.C.G.S.G.S.D.Y.K.D.D.D.D.K.[am]}$PEPTIDE1,PEPTIDE1,3:R3-15:R3$$$V2.0	49.84	–	–
PEPTIDE1{[ac].M.C.I.K.M.F.L.A.H.K.R.F.C.G.S.G.S.D.Y.K.D.D.D.D.K.[am]}$PEPTIDE1,PEPTIDE1,3:R3-14:R3$$$V2.0	0	–	92.3
PEPTIDE1{[ac].M.C.A.V.Y.Y.K.L.W.L.K.H.S.R.C.G.S.G.S.E.E.G.S.G.S.D.Y.K.D.D.D.D.K.[am]}$PEPTIDE1,PEPTIDE1,3:R3-16:R3$$$V2.0	22.18	–	–
PEPTIDE1{[ac].M.C.D.A.Y.Y.V.R.Y.W.Q.V.L.H.C.G.S.G.S.D.Y.K.D.D.D.D.K.[am]}$PEPTIDE1,PEPTIDE1,3:R3-16:R3$$$V2.0	47.51	–	–
PEPTIDE1{[ac].M.C.N.I.L.L.Y.K.I.L.S.V.C.G.S.G.S.D.Y.K.D.D.D.D.K.[am]}$PEPTIDE1,PEPTIDE1,3:R3-14:R3$$$V2.0	52.57	–	–
